Values of other authors in patent publication US20040116522A1, “Medicinal solutions” (priority 2001, published 2004).
Some of these results come from one statement about several compounds together.

Details: cited from earlier work

Structure (SMILES)	pKa
O=C(O)c1ccc(O)cc1 [p-hydroxybenzoic acid]	≥ 4
O=C(O)c1cccc(O)c1 [m-hydroxybenzoic acid]	≥ 4
